Data taken from ChEMBL document CHEMBL3988442, “University of Dundee, Small-Polar-MMV Screening Library” (2021).

The filed quantity is “Percent Effect” (%).
How 0% and 100% were set is not recorded. Most values in the screen are low, and negative values occur.
The compounds are a random part of those screened.

A: 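Assay on Mycobacterium tuberculosis, filed only as a heat shock assay from Cornell; the read-out is not stated. The concentration is filed as 10 mM, unlikely as a test dose, so the dose is not known. The record gives no direction; compounds that gave an IC50 in retests scored well above the rest, so higher reads as stronger inhibition. About 69,000 compounds were tested under these conditions; 1.4% (about 930) showed 50% or more at least once.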
B: 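Whole-cell assay for inhibitors of Mycobacterium tuberculosis growth, labelled Cornell in the record; the read-out is not stated. The concentration is filed as 10 mM, unlikely as a test dose, so the dose is not known. Higher means stronger inhibition (inferred from two other growth screens of the library). About 53,000 compounds were tested under these conditions; 1.7% (about 900) showed 50% or more at least once.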

* COc1cc(CNc2ccccc2Cl)ccc1OCC(=O)O | A: -2.68%; B: -15.63%
* CNc1nc(CNC(=O)Nc2ccc(OC)cc2C)cs1 | A: -3.776%
* COc1c(CNC2CCSc3ccc(F)cc32)c(C)nn1C.Cl (configuration not stated) | A: 15.14%; B: 33.6%
* Cc1sc2nc(CCN)nc(N(CCN(C)C)CC3CCCO3)c2c1C (configuration not stated) | A: -25.67%
* O=C(O)C(F)(F)F.[H][C@@]12CCN(C(=O)NC)CC[C@]1(C(=O)N1CCOCC1)CCN2CC | A: -6.762%
* CC(=O)Nc1ccc(Oc2cccc(CN3CCCC3)c2)cc1 | A: 8.666%; B: 10.9%
* CC(C)n1nc(CNc2ncccn2)c2c1CN(S(C)(=O)=O)CC2 | A: -11.6%; B: -25.53%
* Cc1cccc(N2CCC3(CCCN(C(=O)Cc4cccnc4)C3)C2)n1 (configuration not stated) | A: -32.45%
* O=C(CCCn1cncn1)N1CCC2(CC1)[C@H](O)C[C@@H]2OCCO | A: 8.388%; B: 24.46%
* CC1CCc2nc(NC(=O)CN(C)C(=O)c3ccco3)sc2C1 (configuration not stated) | A: -15.41%; B: -26.45%
* CC(NC1CCN(CC(=O)N(C)C)CC1)c1cnn(C(C)C)c1 (configuration not stated) | A: -12.44%; B: -10.67%
* CC(C(=O)N1CCOCC1)n1cc(Br)cn1 (configuration not stated) | A: -3.968%
* Cc1nccnc1CCC1COCCN1C(=O)CCc1c(C)noc1C (configuration not stated) | A: -18.54%; B: -10.78%
* O=C(NC1CC1)N1CCc2ccc(=O)n(CCN3CCCC3)c2CC1.O=C(O)C(F)(F)F | A: -17.54%; B: 29.7%
* O=C1CN(S(=O)(=O)c2ccc(F)cc2)CC(O)CN1CC1CC1 (configuration not stated) | A: 47.48%; B: -3.014%
* CC(C)(C)C(O)CN1CCN(C(=O)c2ccc3c(c2)COC3)CC1 (configuration not stated) | A: -17.31%
* O=C(c1ccc(-n2cnnc2)cc1)N1CCC(Nc2cccnn2)CC1 | A: -1.926%; B: -54.59%
* O=S(=O)(NCCn1ccc(-c2ccncc2)n1)C1CC1 | A: -25.58%; B: 12.99%
* COCCN1CCC(c2cncc(-c3cccc(Cl)c3)n2)CC1 | A: -10.52%; B: -2.794%
* OC1CCCN(Cc2c(-c3ccco3)[nH]c3ncccc23)C1 (configuration not stated) | A: 8.951%; B: -1.048%
* CCN1CCN(C(=O)c2cc(NC(=O)c3ccccc3)n(C)n2)CC1 | A: 14.57%; B: -13.42%
* Cc1ccc2c(c1)OCCCC2NCc1nnc2n1CCCCC2 (configuration not stated) | A: -7.759%; B: 2.945%
* CN1CCCC1CNC(=O)CCOc1ccc(Br)cc1 (configuration not stated) | A: -49.65%
* COc1cccc(Nc2nc(C3CCNCC3)c3ccccn23)c1.Cl | A: 10.85%; B: -9.211%
* COc1ccc(C(=O)N(Cc2cnn(C)c2)C(C)C)cc1OC(F)F | A: -24.79%; B: -5.946%
* c1cnn(Cc2nnc(C3CCN(C4CCOCC4)CC3)n2C2CC2)c1 | A: 0.961%; B: 12.54%
* CC(C)Oc1cccc(F)c1C(C(=O)O)N(C)Cc1ccon1 (configuration not stated) | A: -21.87%; B: 23.08%
* CCc1cc(N(C)Cc2noc(C(C)C)n2)nc(N2CCOCC2)n1 | A: 17.9%; B: 18.35%
* [H][C@@]12CCN(CC3CC3)C[C@@]1([H])[C@H](C(=O)N1CCCCO1)CCO2 | A: -18.97%; B: -14.39%
* CCOc1ccc2c(c1)CN(Cc1nc3c(cnn3C)c(=O)[nH]1)CC2 | A: -1.196%
* CC(C)Cc1cc(NC(=O)c2ccccc2)n(C)n1 | A: 19.61%; B: 3.896%
* [H][C@@]12C[C@H](C(=O)N3CCOCC3)[C@@]([H])(CN(c3ncc(F)cn3)C1)O2 | A: 19.91%; B: -9.752%
* Cc1cccc(C)c1Nc1noc2c1CN(C(=O)c1ccnn1C)CC2 | A: 1.633%; B: 38.48%
* CCCN1CCC(Cc2noc(-c3cccnc3OC)n2)CC1 | A: -21.62%; B: 20.11%
* O=C(Cn1cc(I)cn1)N1CCOCC1 | A: 16.06%
* CC(C)(C)C(=O)NCCC(=O)NS(=O)(=O)c1ccc2c(c1)OCCO2 | A: -12.59%; B: -22.92%
* Cc1nc(CN2CCCC(CCc3ccccc3C(F)(F)F)C2)no1 (configuration not stated) | A: 6.17%; B: 34.56%
* CC(C)C(=O)NCCc1cc2nc(-c3ccncc3)ccn2n1 | A: -7.885%; B: -48.83%
* [H][C@]12CC[C@]([H])(CN(Cc3cscn3)C1)N(C(=O)Nc1ccc(C)cc1)C2 | A: -0.4041%; B: 12.73%
* Cc1ncnc2c1CCN(C(=O)c1ccoc1)CC2 | A: -40.56%; B: 7.641%
* Cc1cnc(C)c(Oc2ccc(CN3CCCC3)cc2Cl)n1 | A: -34.23%; B: -11.68%
* Cc1cccc2c1cnn2CCC(=O)NCC(=O)N(C)C | A: -0.4636%
* CN(C)c1nccc(N(C)C2CCOCC2)n1 | A: 7.992%
* CN1CC2(CCN(C(=O)c3ccc(-n4cccn4)cc3Cl)C2)OC1=O (configuration not stated) | A: -17.09%
* COc1cccc(-c2cnc3n2CCC32CCN(C(C)=O)CC2)c1 | A: 2.979%; B: 14.53%

Repeated from the top, 5 entries:

- COc1cc(CNc2ccccc2Cl)ccc1OCC(=O)O | A: -2.68%; B: -15.63%
- CNc1nc(CNC(=O)Nc2ccc(OC)cc2C)cs1 | A: -3.776%
- COc1c(CNC2CCSc3ccc(F)cc32)c(C)nn1C.Cl (configuration not stated) | A: 15.14%; B: 33.6%
- Cc1sc2nc(CCN)nc(N(CCN(C)C)CC3CCCO3)c2c1C (configuration not stated) | A: -25.67%
- O=C(O)C(F)(F)F.[H][C@@]12CCN(C(=O)NC)CC[C@]1(C(=O)N1CCOCC1)CCN2CC | A: -6.762%